Results from PubChem BioAssay AID1671190 (National Center for Advancing Translational Sciences (NCATS), 2021).
Several values for one entry are separate records, joined by “and”; a condition that tells them apart may be missing. Equal values may be shown once. About 6,100 (1.1%) of roughly 580,000 compounds were called active. The shares of active, inactive and inconclusive entries below differ from those in the screen. The call rests on the fitted dose curve; in most records, active means well fitted inhibition curve with a large enough effect; inconclusive means small, poorly fitted or top-dose-only effect, or another doubt; inactive means no such curve, though single readings can be large or run the other way. A potency beside an inconclusive call is a rough fit, not a confirmed value.

The chains behind the UniProt entries cited, without tags or fusion partners.
UniProt P18054, whole entry, looked up: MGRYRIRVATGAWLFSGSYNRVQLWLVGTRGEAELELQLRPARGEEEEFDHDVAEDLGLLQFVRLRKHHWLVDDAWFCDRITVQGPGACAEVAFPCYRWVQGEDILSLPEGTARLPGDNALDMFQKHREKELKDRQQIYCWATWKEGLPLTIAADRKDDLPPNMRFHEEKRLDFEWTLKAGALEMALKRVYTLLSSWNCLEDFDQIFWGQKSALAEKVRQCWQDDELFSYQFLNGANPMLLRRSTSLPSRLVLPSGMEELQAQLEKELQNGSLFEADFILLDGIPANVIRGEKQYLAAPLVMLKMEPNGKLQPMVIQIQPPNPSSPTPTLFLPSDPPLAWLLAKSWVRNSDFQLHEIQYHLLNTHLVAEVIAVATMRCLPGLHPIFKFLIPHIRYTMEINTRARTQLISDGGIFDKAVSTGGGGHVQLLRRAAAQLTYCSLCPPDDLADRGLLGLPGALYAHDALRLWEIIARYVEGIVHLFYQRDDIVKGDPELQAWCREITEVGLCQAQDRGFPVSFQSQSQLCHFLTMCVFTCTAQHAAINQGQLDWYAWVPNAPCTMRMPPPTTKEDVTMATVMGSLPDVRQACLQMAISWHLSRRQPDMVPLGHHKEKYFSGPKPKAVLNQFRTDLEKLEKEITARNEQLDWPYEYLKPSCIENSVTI

target: Polyunsaturated fatty acid lipoxygenase ALOX12 (Homo sapiens) (UniProt P18054); experiment: Primary qHTS assay for inhibitors of human arachidonate 12S-lipoxygenase (ALOX12): Round 2; settings: purified 12hLO, xylenol orange hydroperoxide absorbance; activity change, negative = inhibition: at 108 µM (top of the series) unless noted
Method in brief: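 Purified human 12hLO (150 nM final) in 25 mM Hepes, 0.01% Triton X-100, pH 7.0 was preincubated 15 min at room temperature with compound. Then 40 uM arachidonic acid was added, 30 min. Hydroperoxide was read by Fe-XO absorbance ratio 573/405 nm.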
On the % scale 0 is the no-effect control and ±100 the full control effect; potency means the concentration at half of the fitted maximal effect.

Compound | activity change, negative = inhibition | Potency
Cc1ccc(C(=O)N2CCC3(CC2)CC(N2CCN(CC(C)C)CC2)CCO3)s1 (stereo not given) | inactive: 18.6% | 
COC(=O)c1c(NC(=O)c2nc3nc(C)cc(C(F)F)n3n2)sc2c1CCCC2 | inactive: -0.0653% | 
CCOc1ccc(NC(=O)N2CCC(CN3CCCCCC3)CC2)cc1 |  | inconclusive: 50.1 µM [inhibitor, partial curve, poor fit]
Cc1ccc(-c2cc(C(=O)OC(C)C(=O)NC3CCCC3)c3ccccc3n2)o1 (stereo not given) |  | active: 6.31 µM
CCC(C)Nc1nc2c(c(=O)n(C)c(=O)n2C)n1Cc1ccc(Cl)cc1 (stereo not given) |  | inconclusive: 39.8 µM [inhibitor, single point] and inconclusive: 100 µM [inhibitor, partial curve, poor fit]
CCn1c(-c2cc(-c3cc(OC)ccc3OC)nc3ccccc23)n[nH]c1=S |  | active: 20 µM
OCC[C@@H]1C[C@H](O)[C@@H](O)[C@@]2(CCCCO2)O1 |  | inconclusive: 0.398 µM [inhibitor, full curve, poor fit]
COc1ccc(NC(=O)N(C)C[C@H]2Oc3ccc(NS(=O)(=O)c4cccs4)cc3C(=O)N([C@@H](C)CO)C[C@@H]2C)cc1 |  | inconclusive: 141 µM [inhibitor, partial curve, poor fit]
N#Cc1ccc2nc(-c3ccc(CN4CCC(c5nc6ccccc6[nH]5)CC4)cc3)c(-c3ccccc3)nc2c1 |  | inconclusive: 44.7 µM [inhibitor, partial curve, poor fit]
CCCNc1c(NC(=O)Nc2ccc(F)cc2)c(=O)oc2ccccc12 |  | inconclusive: 31.6 µM [inhibitor, single point]
COc1ccc(CCN(C)C/C=C/c2ccccc2[N+](=O)[O-])cc1OC |  | active: 0.891 µM
O=C(Cc1ccc(Cl)cc1)NC1CCN(c2cc(-c3cccs3)[nH]n2)C1 (stereo not given) | inactive: 3.18% | 
CCCCn1nnnc1C1(C)CCC(=O)N1CCc1ccc(OC)c(OC)c1 (stereo not given) |  | inconclusive: 31.6 µM [inhibitor, partial curve, poor fit]
O=[N+]([O-])c1cc(C(F)(F)F)cc([N+](=O)[O-])c1NCCN1CCNCC1 | inactive: -4.97% | 
N#Cc1nc(-c2ccccc2Cl)oc1NCC1CCCO1 (stereo not given) |  | inconclusive: 141 µM [inhibitor, single point]
COCCCNC(=S)N/N=C/c1ccc2c(c1)OCO2 |  | inconclusive: 15.8 µM [inhibitor, full curve, poor fit]
CN(Cc1ccccc1)Cc1cn([C@H]2CO[C@H]3[C@@H]2OC[C@@H]3NC(=O)NCc2ccccc2)nn1 |  | inconclusive: 100 µM [inhibitor, partial curve, poor fit]
CN(C(=O)Nc1cccc([N+](=O)[O-])c1)c1ccccc1 |  | inconclusive: 79.4 µM [inhibitor, single point]
CSc1nc(N2CCOCC2)c2c(c1C#N)CCCCC2 |  | inconclusive: 7.94 µM [inhibitor, full curve, poor fit]
CCOc1ccc(NC(=O)CN(C)C(=O)c2cn3ccccc3n2)cc1OCC | inactive: -17% | 
CCN1CCN(c2oc(-c3ccc(F)cc3)nc2C#N)CC1 |  | inconclusive: 56.2 µM [inhibitor, partial curve, poor fit]
CC(C)(C)Cc1nnc(NC(=O)CN2C(=O)c3ccccc3C2=O)s1 |  | inconclusive: 44.7 µM [inhibitor, partial curve, poor fit]
O=C(O)CC1CCN(Cc2ccccc2)CC1 | inactive: -28.8% | 
Fc1ccc(CNC(=S)NC2CCCCC2)cc1 |  | inconclusive: 0.355 µM [inhibitor, full curve, poor fit]

Compound | activity change, negative = inhibition | Potency
Cc1ccc(C(=O)N2CCCCCCNC(=O)[C@@H]3C[C@@H](C(=O)N4CCc5ccccc5C4)C[C@@H]32)s1 | inactive: -0.15% | 
Cc1cc(F)ccc1C(O)c1ncc(-c2ccc(Cl)cc2)[nH]1 (stereo not given) |  | inconclusive: 141 µM [inhibitor, partial curve, poor fit]
CCOCCNc1ncnc2c1CN(C1CCNC1)C(=O)CN2C (stereo not given) |  | inconclusive: 8.91 µM [inhibitor, full curve, poor fit]
COc1ccc(NC(=S)NC2CC3CCC2C3)c(OC)c1 (stereo not given) | inactive: 0% | 
CCOc1cccc(C(N)=S)c1 |  | inconclusive: 35.5 µM [inhibitor, partial curve, poor fit]
CNC(=S)NNC(=O)c1ccc(Br)s1 | inactive: 7.65% | 
Cc1ccc(NC(=O)CN2C(=O)NC3(CCCCC3C)C2=O)cc1S(=O)(=O)N1CCOCC1 (stereo not given) | inactive: -1.09% | 
CC(=O)N1CCc2c(sc3nc(SCC(N)=O)n(-c4ccc(F)c(Cl)c4)c(=O)c23)C1 |  | inconclusive: 63.1 µM [inhibitor, partial curve, poor fit]
CN(CCCNC(=O)c1ccc(/C=N/O)nc1)CCCN(C)Cc1ccccc1 | inactive: -15.9% | 
Cn1cc(C(C(=O)O)N2CCN(C=O)CC2)c2ccc(C(=O)O)cc21 (stereo not given) |  | inconclusive: 0.891 µM [inhibitor, full curve, poor fit]
Cc1cc(C)cc(CC2CC(=O)N(c3cc(C)ccc3C)C2=O)c1 (stereo not given) |  | inconclusive: 0.794 µM [inhibitor, full curve, poor fit]
Cc1nc2cc(C(=O)OCC(=O)NC34CC5CC(CC(C5)C3)C4)ccc2n1-c1ccccc1 |  | inconclusive: 112 µM [inhibitor, partial curve, poor fit]
CC1(C(=O)NC2CCCCCC2)CCC(=O)N1Cc1ccc2c(c1)OCO2 (stereo not given) | inactive: -6.05% | 
c1ccc(CN2CCc3[nH]c4ccccc4c3C2)cc1 | inactive: 99.2% | 
CCOc1cc(Br)c(C(C)NC(=O)c2cccnc2)cc1OCC (stereo not given) |  | inconclusive: 112 µM [inhibitor, single point]
COCCNc1ncnc2c1CN(c1ccc(Cl)cc1)C(=O)CN2C | inactive: 50.2% | 
Cc1ccc(C2(CCNCc3ccc(N(C)C)cc3)CCOC(C(C)C)C2)cc1 (stereo not given) |  | inconclusive: 50.1 µM [inhibitor, partial curve, poor fit]
Cn1c(C(=O)NCCCc2nnc(N)s2)cc(=O)n(C)c1=O |  | inconclusive: 12.6 µM [inhibitor, full curve, poor fit]
COc1ccccc1C(NC(=O)C1CCN(CCOc2ccc(Cl)cc2Cl)CC1)c1ccccn1 (stereo not given) |  | inconclusive: 28.2 µM [inhibitor, single point]
CC(c1nc(-c2cccc(C(F)(F)F)c2)no1)N1CCN(C(=O)Nc2cccc(C#N)c2)CC1 (stereo not given) | inconclusive: -40.2% [inhibitor] | 
O=S(=O)(NC1=NCN(Cc2cccnc2)CN1)c1ccc(Cl)cc1 | inactive: 15.6% | 
COc1ccc(-c2nc(C(=O)N3CCOCC3)nn2-c2ccccc2Cl)cc1 | inactive: -11% | 
O=C(O)CSc1nnc(CNc2cccc(C(F)(F)F)c2)n1Cc1ccco1 | inactive: 0% | 
COc1ccc(C(=O)NC(C(=O)NC(C)C)C2CCN(C(=O)c3ccccc3)CC2)cc1 (stereo not given) | inactive: 42% | 

Compound | activity change, negative = inhibition | Potency
O=C(NCCN1CCNC1=O)C1CCC(=O)N(CCc2ccccc2)C1 (stereo not given) | inactive: 21.6% | 
COc1ccc(COCC(O)Cn2nc(-c3ccc(C)cc3)c3ccccc3c2=O)cc1 (stereo not given) |  | inconclusive: 100 µM [inhibitor, single point]
COc1cc(C(=O)Nc2c(C(=O)O)[nH]c3ccc(Br)cc23)cc(OC)c1OC |  | active: 39.8 µM
Cn1c(=O)c2c(-c3ccccc3)n(C3CCCCC3)cc2n(C)c1=O |  | inconclusive: 112 µM [inhibitor, single point]
NNc1nnc(NN)c2ccccc12 |  | inconclusive: 5.73 µM [inhibitor, partial curve, poor fit]
CCOC(=O)Nc1nnc(-c2ccc(OC)cc2)s1 | inactive: 25.1% | 
CC(O)CC(=O)NOCc1ccccc1 (stereo not given) | inactive: -0.707% | 
Cc1ccc(Cn2c(C3CCN(C(=O)COc4cccc(C)c4)CC3)n[nH]c2=O)cc1 |  | inconclusive: 79.4 µM [inhibitor, single point]
O=c1c2c([nH]c3ccc(Br)cc13)CCCC2 | inactive: 155% | 
COC(=O)c1ccc(CNC(=O)COC(=O)/C=C/c2ccc(OC)c(OC)c2)cc1 |  | inconclusive: 100 µM [inhibitor, single point]
COCCn1nnnc1C(c1ccc(OC)cc1OC)N1CCN(c2ccccc2)CC1 (stereo not given) | inactive: 0% | 
Cc1cc2oc(=O)cc(CN3CCN(C)CC3)c2cc1C | inactive: 0.709% | 
O=C(Nc1cccc2ncccc12)c1ccc([N+](=O)[O-])cc1 |  | inconclusive: 79.4 µM [inhibitor, single point]
Oc1ccc(-c2nc(-c3ccc(Br)cc3)no2)cc1 |  | inconclusive: 44.7 µM [inhibitor, full curve, poor fit]
CCN(C(=O)c1c(C)cc(=O)oc1C)c1ccc2c(c1)OCO2 |  | inconclusive: 15.8 µM [inhibitor, partial curve, poor fit]
CCCCNc1ccc2c(c1)OC[C@@H](Cc1ccccc1)NS2(=O)=O |  | inconclusive: 89.1 µM [inhibitor, partial curve, poor fit]
CCCCN(C=O)c1c(CC)nc2ccc(C(=O)NCCOc3ccc(OC)cc3)cn12 |  | inconclusive: 44.7 µM [inhibitor, partial curve, poor fit]
O=C(c1cc(-c2ccccc2)c(-c2ccccc2)s1)C(c1ccccc1)c1ccccc1 |  | inconclusive: 56.2 µM [inhibitor, partial curve, poor fit]
Cc1cccc(-n2nnc(C(=O)N3CCc4ccccc4C3)c2N)c1 | inactive: 12.7% | 
CCN1CNC(=S)N(c2ccccc2C)C1 |  | inconclusive: 35.5 µM [inhibitor, single point]
N[C@H](CCC(=O)N[C@H](CSN=O)C(=O)NCC(=O)O)C(=O)O | inactive: 0% | 
CCOC(=O)Cn1c(=O)oc2cc(S(=O)(=O)N3CCCc4ccccc43)ccc21 |  | inconclusive: 100 µM [inhibitor, single point]

Three structures from above, arranged by length of the SMILES, low to high:
Compound | activity change, negative = inhibition | Potency
CSc1nc(N2CCOCC2)c2c(c1C#N)CCCCC2 |  | inconclusive: 7.94 µM [inhibitor, full curve, poor fit]
COc1ccc(-c2nc(C(=O)N3CCOCC3)nn2-c2ccccc2Cl)cc1 | inactive: -11% | 
COc1ccc(C(=O)NC(C(=O)NC(C)C)C2CCN(C(=O)c3ccccc3)CC2)cc1 (stereo not given) | inactive: 42% | 
